Results published in article PMC8586358 (Nature Communications, 2021).
The source holds more than one record for some entries. This is not the full list of results. The source may hold further records. Values given together read as repeated measurements on other runs, samples or individuals.

Protein sequences, listed by entry. Tags and fused reporters are not part of them. Lines headed by an entry give the natural chain unless they say otherwise; changes in a name come on top.
UniProt P35462, whole entry: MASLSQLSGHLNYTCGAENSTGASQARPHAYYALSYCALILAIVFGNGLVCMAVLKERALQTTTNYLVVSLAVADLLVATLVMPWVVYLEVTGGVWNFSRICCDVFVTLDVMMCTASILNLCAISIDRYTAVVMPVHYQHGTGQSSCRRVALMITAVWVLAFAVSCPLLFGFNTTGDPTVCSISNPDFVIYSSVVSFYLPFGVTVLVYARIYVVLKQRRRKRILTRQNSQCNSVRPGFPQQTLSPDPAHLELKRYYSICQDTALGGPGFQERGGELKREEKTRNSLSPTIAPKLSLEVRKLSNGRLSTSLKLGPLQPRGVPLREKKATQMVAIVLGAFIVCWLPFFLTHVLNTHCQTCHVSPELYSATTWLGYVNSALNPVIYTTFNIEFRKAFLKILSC

Biological target: D3R (Homo sapiens, UniProt P35462)
Test: BRET-based Gi1-activation assay in HEK 293T cells
Details: PD 128907 10^-10 M, vehicle pretreatment

For `CCCN1CCOC2c3cc(O)ccc3OCC21` (single isomer, unassigned), which “Gi1-BRET response (%, norm. to pretreatment)” value is on record?
The value was 19.9504% and 4.1%.
